Assay [1] deals with T1, WRKY53 (1-217 aa)-BK (Arabidopsis thaliana) (UniProt Q9SUP6).
T1 sequence: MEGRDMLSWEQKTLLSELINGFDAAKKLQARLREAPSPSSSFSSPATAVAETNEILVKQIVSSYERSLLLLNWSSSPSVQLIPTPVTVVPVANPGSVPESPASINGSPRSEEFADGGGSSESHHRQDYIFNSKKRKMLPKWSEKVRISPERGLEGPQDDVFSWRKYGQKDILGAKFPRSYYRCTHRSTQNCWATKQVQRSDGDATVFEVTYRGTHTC
The experiment in a line: two-hybrid.

Protein sequences, listed by entry. Tags and fused reporters are not part of them.
UniProt O23320: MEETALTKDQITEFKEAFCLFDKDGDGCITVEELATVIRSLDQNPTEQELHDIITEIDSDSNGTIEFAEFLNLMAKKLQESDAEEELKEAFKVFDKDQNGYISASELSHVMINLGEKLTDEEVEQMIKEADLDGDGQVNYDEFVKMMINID

Assay [2] addresses T2, WRKY53-NLuc (Arabidopsis thaliana) (UniProt Q9SUP6).
T2 sequence: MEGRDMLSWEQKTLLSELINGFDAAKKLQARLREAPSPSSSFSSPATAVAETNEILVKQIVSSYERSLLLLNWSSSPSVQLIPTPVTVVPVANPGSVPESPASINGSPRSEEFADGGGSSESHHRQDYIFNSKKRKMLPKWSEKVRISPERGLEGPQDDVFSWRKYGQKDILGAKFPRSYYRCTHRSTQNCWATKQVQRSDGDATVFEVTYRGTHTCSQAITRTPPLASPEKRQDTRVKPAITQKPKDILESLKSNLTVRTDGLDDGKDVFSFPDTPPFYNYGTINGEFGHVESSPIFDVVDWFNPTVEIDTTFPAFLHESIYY
Nature of the assay: split reporter.

Assay [3] concerns the target T3, ACA8 (1-180 aa)-BK (Arabidopsis thaliana) (UniProt Q9LF79).
T3 sequence: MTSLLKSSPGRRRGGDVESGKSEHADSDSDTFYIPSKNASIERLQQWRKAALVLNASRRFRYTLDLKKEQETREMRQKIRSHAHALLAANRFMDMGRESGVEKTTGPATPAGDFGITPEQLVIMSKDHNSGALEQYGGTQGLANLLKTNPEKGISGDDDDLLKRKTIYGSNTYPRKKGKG
The experiment in a line: two-hybrid.

Assay [4] has as its target T4, ACA8-NLuc (Arabidopsis thaliana) (UniProt Q9LF79).
T4 sequence: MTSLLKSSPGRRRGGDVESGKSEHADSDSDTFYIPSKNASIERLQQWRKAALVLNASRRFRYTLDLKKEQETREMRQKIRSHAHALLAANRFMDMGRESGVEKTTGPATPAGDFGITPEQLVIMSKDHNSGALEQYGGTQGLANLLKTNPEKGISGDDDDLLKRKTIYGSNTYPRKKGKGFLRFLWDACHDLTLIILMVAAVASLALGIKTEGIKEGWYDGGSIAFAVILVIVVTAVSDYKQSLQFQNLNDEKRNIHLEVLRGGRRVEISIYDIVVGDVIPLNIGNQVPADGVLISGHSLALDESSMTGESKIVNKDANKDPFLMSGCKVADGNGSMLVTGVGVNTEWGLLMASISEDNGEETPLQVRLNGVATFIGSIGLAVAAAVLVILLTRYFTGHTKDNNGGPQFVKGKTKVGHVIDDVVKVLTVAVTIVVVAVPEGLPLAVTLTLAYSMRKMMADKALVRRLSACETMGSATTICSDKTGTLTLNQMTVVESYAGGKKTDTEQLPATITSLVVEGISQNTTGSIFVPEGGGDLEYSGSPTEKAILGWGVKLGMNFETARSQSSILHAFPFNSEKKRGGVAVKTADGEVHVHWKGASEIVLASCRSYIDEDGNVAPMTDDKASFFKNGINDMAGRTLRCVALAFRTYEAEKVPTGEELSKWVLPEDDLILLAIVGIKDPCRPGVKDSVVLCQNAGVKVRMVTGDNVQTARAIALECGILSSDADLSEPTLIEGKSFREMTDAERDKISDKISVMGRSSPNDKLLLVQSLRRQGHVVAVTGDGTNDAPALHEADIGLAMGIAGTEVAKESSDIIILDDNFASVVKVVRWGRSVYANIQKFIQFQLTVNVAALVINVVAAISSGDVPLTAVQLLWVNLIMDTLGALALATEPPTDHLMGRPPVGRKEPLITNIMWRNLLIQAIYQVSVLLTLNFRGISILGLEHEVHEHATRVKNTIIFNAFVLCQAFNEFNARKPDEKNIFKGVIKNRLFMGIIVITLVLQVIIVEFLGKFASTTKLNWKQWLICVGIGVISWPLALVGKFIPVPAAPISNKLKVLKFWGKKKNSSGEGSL
Nature of the assay: split reporter.

These are yes or no findings as the source states them, for the method shown. For some of these results: In cells and extracts the contact can be indirect. Some binding calls cover weakened binding; strength is not graded here. For some of these results: Tags and fused reporters may be left off the sequences shown.

With “CAM5-AD (CALMODULIN 5 in pGADT7) (from UniProt Q682T9 1-149)”, the binding result in assay [1] is listed as “binds”.

With CAM5-CLuc (from UniProt Q682T9 1-149), the binding result in assay [2] is reported as “binds”.

In the case of “CML8-AD (CALMODULIN-LIKE 8 in pGADT7) (from UniProt O23320 1-151)”, in assay [3], the binding entry is recorded as “binds”.

CML8-CLuc (from UniProt O23320 1-151): the binding result in assay [4] is “binds”.

The record behind these values is doi:10.1101/2023.01.24.525215.
